Test results from patent US9612237B2, “Ritalinic acid immunoassay” (Randox Laboratories Limited, priority 2013, dated 2017).
Where a name gives a salt, the structure may show the parent alone. At least one structure is not confirmed: it was looked up by name or label, or the drawing left a doubt.

System: antisera generated in response to immunogen of Example 11
Assay: Competitive chemiluminescent biochip immunoassay, antisera raised against immunogen of Example 11, conjugate of Example 12
Format: binding, sheep
Conditions: value is the concentration at which no cross-reactivity was exhibited

Row | Structure (SMILES) | Concentration exhibiting no cross-reactivity
1 | CN(C)CCCC1(c2ccc(F)cc2)OCc2cc(C#N)ccc21 (stereo not drawn) [citalopram hydrobromide salt] | 7.5 µg/mL
2 | O=C1Nc2ccc(Cl)cc2C(c2ccccc2)=NC1O (stereo not drawn) [oxazepam] | 3 µg/mL
3 | CCC1(c2ccccc2)C(=O)NC(=O)NC1=O [phenobarbital] | 10 µg/mL
